Drawing on article PMC5953544, this text covers binding for two molecules.

Test [1] deals with T1, FLAG-Ripply2 (mouse) (UniProt Q2WG76).
T1 sequence: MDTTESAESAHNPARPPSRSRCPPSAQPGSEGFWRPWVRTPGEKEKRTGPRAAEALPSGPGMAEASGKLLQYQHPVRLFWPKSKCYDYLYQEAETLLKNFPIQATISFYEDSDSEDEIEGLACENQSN
As to the kind of experiment: affinity purification with mass spectrometry; lysate of PSM-fated Tbx6-venus ES cells after 3 hr Dox; anti-FLAG beads overnight, at least eight washes, elution with 150 μg/mL 3xFLAG peptide, gradient gel, mass spectrometry; control cells without FLAG-Ripply2.

Test [2] deals with T1, FLAG-Ripply2 (mouse). Described as above. The source holds these as a separate data set.

Like-named read-outs stand apart in the source and are kept apart here. No constants are given. Whether binding was seen depends on the method and setting. In cells and extracts the contact can be indirect. Here binding means that the protein was enriched with, or labelled near, the bait; the list need not be complete. Sequences can lack the tags named with a protein.

As to “TLE (mouse (endogenous in TT2 ES cells))”, the binding entry with FLAG-Ripply2 (mouse) [1] is “binds”.

B1: Tbx6-venus (protein, UniProt P70327 1-436)
chain: MYHPRELYPSLGTGYRLGHPQPGADSTFPPALTEGYRYPDLDTSKLDCFLSGIEAAPHTLAAAAPLPLLPSALGPETAPPPPEALHSLPGVSLSLENQELWKEFSAVGTEMIITKAGRRMFPACRVSVTGLDPEARYLFLLDVVPVDGARYRWQGQHWEPSGKAEPRLPDRVYIHPDSPATGAHWMRQPVSFHRVKLTNSTLDPHGHLILHSMHKYQPRIHLVRATQLCSQHWGGVASFRFPETTFISVTAYQNPRITQLKIAANPFAKGFRENGRNCKRERDARVKRKLRGPEPVATEACGSGDTPGGPCDSTLGGDIRDSDPEQAPTPQEAASASAPPCGGPSAEAYLLHPAAFHGAPSHLPARTPSFAEAPDPGRPAPYSAAFLDLQPGPGGSAYQAAPSVPSFAPHFIQGGPFPLPYPGPGGYLDMGSKPMY
On to B1, for which, in the test with FLAG-Ripply2 (mouse) [2], the binding entry is recorded as “binds”.
